The values that follow come from article doi:10.1101/2020.10.21.349050.

Protein sequences, listed by entry. Tags and fused reporters are not part of them.
UniProt P40381, whole entry K242A/K243A/K244A: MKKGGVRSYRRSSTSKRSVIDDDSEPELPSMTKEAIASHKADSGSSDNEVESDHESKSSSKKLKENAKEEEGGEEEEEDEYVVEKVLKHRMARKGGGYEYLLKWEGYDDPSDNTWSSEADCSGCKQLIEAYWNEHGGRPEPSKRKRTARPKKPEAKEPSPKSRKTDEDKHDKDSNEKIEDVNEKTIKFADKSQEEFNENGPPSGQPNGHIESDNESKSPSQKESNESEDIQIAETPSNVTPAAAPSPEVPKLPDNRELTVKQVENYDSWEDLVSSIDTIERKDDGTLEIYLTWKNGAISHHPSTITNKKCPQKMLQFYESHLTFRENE

For at least one entry, the source does not settle the construct or the ends of the probe. For some of these results: A negative result means that nothing was seen under these conditions. For some of these results: The comparison behind a weaker result is the experiment's own reference, which may not be listed here.

Test in all cases: EMSA
The target in series [1] is GST-Swi6 3K->3A K242A,K243A,K244A (Schizosaccharomyces pombe) (UniProt P40381). The note with it: drastically reduced.
Series [2] concerns the target GST-Swi6-CSD (Schizosaccharomyces pombe) (UniProt P40381).
Series [3] has as its target GST-Swi6-CD-Hinge (Schizosaccharomyces pombe) (UniProt P40381).
The target in series [4] is GST-Swi6-CD (Schizosaccharomyces pombe) (UniProt P40381).

For UGGAUUAAGGAGAAGCGGUA [D-For RNA], in series [1], the binding result was “binds more weakly”.
With ACAAGUGAUAAGAGUAGGUGU [E-For RNA], the values for the binding result in series [2], in series [3] and in series [4] were “no binding”, “binds” and “binds”, respectively.
